# Data published in the supplement of paper PMC10032668.
# Sequences of proteins named here, by UniProt entry; tags and fusion partners are left off.
# CD2AP, Q9Y5K6, UniProt Q9Y5K6, whole entry: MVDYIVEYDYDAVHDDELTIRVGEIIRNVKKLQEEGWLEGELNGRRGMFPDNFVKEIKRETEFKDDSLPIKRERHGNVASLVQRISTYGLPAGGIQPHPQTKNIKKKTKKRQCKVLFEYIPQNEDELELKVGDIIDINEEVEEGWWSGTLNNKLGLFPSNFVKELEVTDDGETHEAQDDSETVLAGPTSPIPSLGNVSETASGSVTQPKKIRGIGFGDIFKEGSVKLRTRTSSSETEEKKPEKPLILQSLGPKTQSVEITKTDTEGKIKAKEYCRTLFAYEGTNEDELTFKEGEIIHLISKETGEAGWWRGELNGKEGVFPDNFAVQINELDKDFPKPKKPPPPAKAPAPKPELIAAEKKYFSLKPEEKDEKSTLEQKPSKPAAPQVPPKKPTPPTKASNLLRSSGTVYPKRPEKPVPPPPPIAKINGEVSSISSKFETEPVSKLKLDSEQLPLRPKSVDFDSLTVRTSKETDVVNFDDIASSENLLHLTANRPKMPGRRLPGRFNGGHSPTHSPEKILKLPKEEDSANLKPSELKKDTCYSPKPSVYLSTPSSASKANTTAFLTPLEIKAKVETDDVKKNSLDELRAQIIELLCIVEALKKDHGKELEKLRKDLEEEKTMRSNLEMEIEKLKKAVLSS
# COX7A2, P14406, UniProt P14406, whole entry: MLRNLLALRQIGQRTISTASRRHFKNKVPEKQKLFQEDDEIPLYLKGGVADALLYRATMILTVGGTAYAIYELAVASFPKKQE
# CUL1, Q13616, UniProt Q13616, whole entry: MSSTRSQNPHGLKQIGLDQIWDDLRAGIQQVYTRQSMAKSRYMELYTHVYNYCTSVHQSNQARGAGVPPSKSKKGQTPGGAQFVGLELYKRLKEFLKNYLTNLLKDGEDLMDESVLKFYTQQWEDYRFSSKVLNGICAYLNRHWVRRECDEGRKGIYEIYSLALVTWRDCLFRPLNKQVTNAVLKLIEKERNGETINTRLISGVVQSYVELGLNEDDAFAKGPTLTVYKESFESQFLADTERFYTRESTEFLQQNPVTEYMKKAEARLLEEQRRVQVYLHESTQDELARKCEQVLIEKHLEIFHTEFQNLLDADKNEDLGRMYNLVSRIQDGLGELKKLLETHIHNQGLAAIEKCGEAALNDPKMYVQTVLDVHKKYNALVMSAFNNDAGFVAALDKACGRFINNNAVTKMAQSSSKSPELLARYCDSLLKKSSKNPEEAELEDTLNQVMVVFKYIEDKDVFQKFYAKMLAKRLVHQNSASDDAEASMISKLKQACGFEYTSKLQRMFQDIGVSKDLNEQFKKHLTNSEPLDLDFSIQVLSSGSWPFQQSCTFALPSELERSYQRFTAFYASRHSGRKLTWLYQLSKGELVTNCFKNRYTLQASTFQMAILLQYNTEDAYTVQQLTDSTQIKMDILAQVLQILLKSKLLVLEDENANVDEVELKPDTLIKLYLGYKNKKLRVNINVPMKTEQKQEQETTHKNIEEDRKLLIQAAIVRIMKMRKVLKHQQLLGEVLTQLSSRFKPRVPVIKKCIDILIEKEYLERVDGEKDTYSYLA
# HAX1, O00165, UniProt O00165, whole entry: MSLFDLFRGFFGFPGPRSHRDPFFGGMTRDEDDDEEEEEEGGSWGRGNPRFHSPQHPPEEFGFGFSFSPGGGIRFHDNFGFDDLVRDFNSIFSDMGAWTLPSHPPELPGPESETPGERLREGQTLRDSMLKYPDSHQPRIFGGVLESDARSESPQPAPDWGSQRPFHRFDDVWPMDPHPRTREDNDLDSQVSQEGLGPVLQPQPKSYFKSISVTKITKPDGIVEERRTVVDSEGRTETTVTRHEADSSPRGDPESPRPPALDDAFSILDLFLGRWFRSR
# MPG, P29372, UniProt P29372, whole entry: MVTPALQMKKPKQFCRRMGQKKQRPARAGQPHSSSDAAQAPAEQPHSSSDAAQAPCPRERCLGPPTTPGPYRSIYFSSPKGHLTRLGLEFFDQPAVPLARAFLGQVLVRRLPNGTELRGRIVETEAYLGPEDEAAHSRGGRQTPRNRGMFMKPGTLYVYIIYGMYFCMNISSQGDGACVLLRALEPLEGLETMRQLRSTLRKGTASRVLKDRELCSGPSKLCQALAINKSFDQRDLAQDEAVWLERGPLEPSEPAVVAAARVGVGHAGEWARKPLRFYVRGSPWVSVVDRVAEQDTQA
# NCAPD2, Q15021, UniProt Q15021, whole entry: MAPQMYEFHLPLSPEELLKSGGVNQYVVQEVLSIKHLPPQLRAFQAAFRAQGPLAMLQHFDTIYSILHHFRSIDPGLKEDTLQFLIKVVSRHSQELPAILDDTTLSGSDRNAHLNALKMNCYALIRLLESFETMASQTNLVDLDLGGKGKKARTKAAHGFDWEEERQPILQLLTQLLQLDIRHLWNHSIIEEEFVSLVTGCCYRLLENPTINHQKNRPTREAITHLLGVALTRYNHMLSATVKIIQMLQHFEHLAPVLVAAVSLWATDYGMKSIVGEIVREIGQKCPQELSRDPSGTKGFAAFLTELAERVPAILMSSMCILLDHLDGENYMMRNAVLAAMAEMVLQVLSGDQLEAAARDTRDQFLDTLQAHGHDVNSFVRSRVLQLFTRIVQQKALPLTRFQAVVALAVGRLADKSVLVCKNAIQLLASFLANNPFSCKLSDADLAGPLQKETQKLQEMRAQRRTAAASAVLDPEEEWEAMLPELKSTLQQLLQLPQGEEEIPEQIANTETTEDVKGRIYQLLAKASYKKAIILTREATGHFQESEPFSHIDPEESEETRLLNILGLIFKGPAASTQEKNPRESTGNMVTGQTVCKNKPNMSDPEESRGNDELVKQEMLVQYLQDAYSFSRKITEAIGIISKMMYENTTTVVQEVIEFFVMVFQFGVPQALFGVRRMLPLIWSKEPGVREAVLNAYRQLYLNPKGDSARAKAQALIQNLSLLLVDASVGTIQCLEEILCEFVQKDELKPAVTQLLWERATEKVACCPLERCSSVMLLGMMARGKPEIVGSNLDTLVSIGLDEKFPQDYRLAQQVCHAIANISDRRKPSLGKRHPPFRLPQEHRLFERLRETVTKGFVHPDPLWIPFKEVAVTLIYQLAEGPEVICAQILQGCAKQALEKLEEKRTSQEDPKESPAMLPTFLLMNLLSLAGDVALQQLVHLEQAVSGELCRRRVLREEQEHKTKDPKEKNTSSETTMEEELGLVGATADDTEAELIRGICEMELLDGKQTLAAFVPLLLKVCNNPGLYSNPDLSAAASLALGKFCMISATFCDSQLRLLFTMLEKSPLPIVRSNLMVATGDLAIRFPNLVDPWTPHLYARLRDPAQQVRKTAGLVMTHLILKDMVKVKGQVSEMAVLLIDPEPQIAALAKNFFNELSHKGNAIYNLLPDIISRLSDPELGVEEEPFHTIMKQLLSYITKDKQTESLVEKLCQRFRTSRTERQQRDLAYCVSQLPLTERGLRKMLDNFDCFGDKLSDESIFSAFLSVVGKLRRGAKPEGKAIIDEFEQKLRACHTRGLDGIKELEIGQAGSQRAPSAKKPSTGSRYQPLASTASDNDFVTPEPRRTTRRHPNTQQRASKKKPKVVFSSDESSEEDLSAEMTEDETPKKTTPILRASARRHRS
# SNRPD3, P62318, UniProt P62318, whole entry: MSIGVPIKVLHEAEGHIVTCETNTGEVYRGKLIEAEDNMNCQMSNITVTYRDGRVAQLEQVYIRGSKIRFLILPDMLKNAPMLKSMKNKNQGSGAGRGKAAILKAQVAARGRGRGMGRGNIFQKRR
# TUBG1, P23258, UniProt P23258, whole entry: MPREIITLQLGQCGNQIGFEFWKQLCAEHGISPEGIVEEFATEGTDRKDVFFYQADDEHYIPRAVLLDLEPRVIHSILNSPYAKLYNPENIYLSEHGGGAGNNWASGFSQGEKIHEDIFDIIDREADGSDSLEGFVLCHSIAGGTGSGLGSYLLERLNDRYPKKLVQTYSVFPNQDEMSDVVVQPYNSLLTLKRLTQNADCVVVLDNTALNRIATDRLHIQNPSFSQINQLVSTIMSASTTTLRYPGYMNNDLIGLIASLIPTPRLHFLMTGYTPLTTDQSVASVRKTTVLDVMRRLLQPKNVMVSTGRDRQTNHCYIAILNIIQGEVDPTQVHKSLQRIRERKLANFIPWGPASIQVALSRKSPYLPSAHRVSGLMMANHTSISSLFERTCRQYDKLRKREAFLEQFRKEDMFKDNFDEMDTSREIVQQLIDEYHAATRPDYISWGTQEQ
# XPO1, O14980, UniProt O14980, whole entry: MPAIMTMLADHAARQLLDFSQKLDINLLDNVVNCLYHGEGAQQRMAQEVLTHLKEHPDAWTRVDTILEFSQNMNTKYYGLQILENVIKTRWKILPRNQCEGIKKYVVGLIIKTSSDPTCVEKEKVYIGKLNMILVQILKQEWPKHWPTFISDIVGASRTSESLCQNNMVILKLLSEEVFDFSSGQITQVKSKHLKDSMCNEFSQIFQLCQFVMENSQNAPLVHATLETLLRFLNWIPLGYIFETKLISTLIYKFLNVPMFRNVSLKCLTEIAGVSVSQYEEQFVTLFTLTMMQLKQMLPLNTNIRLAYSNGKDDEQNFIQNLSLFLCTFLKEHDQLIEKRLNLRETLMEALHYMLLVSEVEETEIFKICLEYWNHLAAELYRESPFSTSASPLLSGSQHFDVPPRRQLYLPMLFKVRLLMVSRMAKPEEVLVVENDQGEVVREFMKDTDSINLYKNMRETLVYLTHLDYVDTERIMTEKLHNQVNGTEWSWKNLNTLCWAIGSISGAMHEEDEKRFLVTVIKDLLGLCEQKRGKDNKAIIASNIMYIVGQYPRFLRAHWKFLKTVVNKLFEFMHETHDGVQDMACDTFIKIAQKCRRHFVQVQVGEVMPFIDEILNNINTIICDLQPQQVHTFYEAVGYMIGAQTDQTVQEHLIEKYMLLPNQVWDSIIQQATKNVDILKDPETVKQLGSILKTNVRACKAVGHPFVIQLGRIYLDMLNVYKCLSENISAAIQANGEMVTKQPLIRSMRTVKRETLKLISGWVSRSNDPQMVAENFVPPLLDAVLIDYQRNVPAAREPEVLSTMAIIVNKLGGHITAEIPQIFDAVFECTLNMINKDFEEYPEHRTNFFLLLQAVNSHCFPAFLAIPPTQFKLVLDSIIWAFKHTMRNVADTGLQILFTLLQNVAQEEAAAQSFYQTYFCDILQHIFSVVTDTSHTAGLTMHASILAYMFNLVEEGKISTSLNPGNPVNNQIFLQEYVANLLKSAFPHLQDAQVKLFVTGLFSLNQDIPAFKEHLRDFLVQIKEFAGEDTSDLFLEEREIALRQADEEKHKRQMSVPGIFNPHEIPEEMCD
# The list shows a part of the results. The list holds hits alone, and they repeat only in part.
# Key:
# Assay in all cases: PRISMA enrichment of interactor (LFQ) in peptide spot vs all other peptide spots (log2 fold change); higher = stronger / more specific binding of the interactor to the peptide
# ACOT9, Q9Y305 = target: ACOT9, Q9Y305
# Experimental: (§1)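 PRISMA: 15-aa overlapping tiles (offset 8 aa) of 60 microproteins, plus SOS1/GLUT1 control peptides, were spot-synthesized on cellulose membranes in triplicate. Membranes were incubated with benzonase-treated HEK293T lysate, and bound proteins were identified by LC-MS/MS with LFQ. Enrichment is the log2 fold change of each protein in one spot versus all other spots. Only interactors passing the significance cutoff are listed.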
# BIN1, O00499 = target: BIN1, O00499
# Experimental: as §1
# BRAT1, Q6PJG6 = target: BRAT1, Q6PJG6
# Experimental: as §1
# BZW1, Q7L1Q6 = target: BZW1, Q7L1Q6
# Experimental: as §1
# C4A, P0C0L4 = target: C4A, P0C0L4
# Experimental: as §1
# CBX4, O00257 = target: CBX4, O00257
# Experimental: as §1
# CC2D1A, Q6P1N0 = target: CC2D1A, Q6P1N0
# Experimental: as §1
# CD2AP, Q9Y5K6 = target: CD2AP, Q9Y5K6
# Experimental: as §1
# CHAMP1, Q96JM3 = target: CHAMP1, Q96JM3
# Experimental: as §1
# CHD1, O14646 = target: CHD1, O14646
# Experimental: as §1
# CHMP1A, Q9HD42 = target: CHMP1A, Q9HD42
# Experimental: as §1
# COX7A2, P14406 = target: COX7A2, P14406
# Experimental: as §1
# CPSF2, Q9P2I0 = target: CPSF2, Q9P2I0
# Experimental: as §1
# CUL1, Q13616 = target: CUL1, Q13616
# Experimental: as §1
# EXOC5, O00471 = target: EXOC5, O00471
# Experimental: as §1
# FKBP9, O95302 = target: FKBP9, O95302
# Experimental: as §1
# FYTTD1, Q96QD9 = target: FYTTD1, Q96QD9
# Experimental: as §1
# GATA6, Q92908 = target: GATA6, Q92908
# Experimental: as §1
# GRB2, P62993 = target: GRB2, P62993
# Experimental: as §1
# HAX1, O00165 = target: HAX1, O00165
# Experimental: as §1
# HIRIP3, Q9BW71 = target: HIRIP3, Q9BW71
# Experimental: as §1
# KLF16, Q9BXK1 = target: KLF16, Q9BXK1
# Experimental: as §1
# LYPLAL1, Q5VWZ2 = target: LYPLAL1, Q5VWZ2
# Experimental: as §1
# MPG, P29372 = target: MPG, P29372
# Experimental: as §1
# MRPL43, Q8N983 = target: MRPL43, Q8N983
# Experimental: as §1
# MRPS5, P82675 = target: MRPS5, P82675
# Experimental: as §1
# NCAPD2, Q15021 = target: NCAPD2, Q15021
# Experimental: as §1
# POLR2J3, Q9H1A7 = target: POLR2J3, Q9H1A7
# Experimental: as §1
# PTP4A2, Q12974 = target: PTP4A2, Q12974
# Experimental: as §1
# RBM38, Q9H0Z9 = target: RBM38, Q9H0Z9
# Experimental: as §1
# RIF1, Q5UIP0 = target: RIF1, Q5UIP0
# Experimental: as §1
# RNASEH1, O60930 = target: RNASEH1, O60930
# Experimental: as §1
# SNRPD3, P62318 = target: SNRPD3, P62318
# Experimental: as §1
# SUPT4H1, P63272 = target: SUPT4H1, P63272
# Experimental: as §1
# TMEM177, Q53S58 = target: TMEM177, Q53S58
# Experimental: as §1
# TUBG1, P23258 = target: TUBG1, P23258
# Experimental: as §1
# TXLNG, Q9NUQ3 = target: TXLNG, Q9NUQ3
# Experimental: as §1
# UBA1, P22314 = target: UBA1, P22314
# Experimental: as §1
# XPO1, O14980 = target: XPO1, O14980
# Experimental: as §1
# XPO4, Q9C0E2 = target: XPO4, Q9C0E2
# Experimental: as §1
# ZC3H11A, O75152 = target: ZC3H11A, O75152
# Experimental: as §1
binder,measurement,setting,value
EVPVPAPVAPARRP [SOS1_MUT_1],PRISMA enrichment of interactor (log2),"ACOT9, Q9Y305",6.1
same,PRISMA enrichment of interactor (log2),"BIN1, O00499",3.6
same,PRISMA enrichment of interactor (log2),"BRAT1, Q6PJG6",4.35
same,PRISMA enrichment of interactor (log2),"BZW1, Q7L1Q6",5.17
same,PRISMA enrichment of interactor (log2),"C4A, P0C0L4",3.67
same,PRISMA enrichment of interactor (log2),"CBX4, O00257",3.86
same,PRISMA enrichment of interactor (log2),"CC2D1A, Q6P1N0",8.88
same,PRISMA enrichment of interactor (log2),"CD2AP, Q9Y5K6",6.03
same,PRISMA enrichment of interactor (log2),"CHAMP1, Q96JM3",4.17
same,PRISMA enrichment of interactor (log2),"CHD1, O14646",5.12
same,PRISMA enrichment of interactor (log2),"CHMP1A, Q9HD42",4.56
same,PRISMA enrichment of interactor (log2),"COX7A2, P14406",5.97
same,PRISMA enrichment of interactor (log2),"CPSF2, Q9P2I0",6.06
same,PRISMA enrichment of interactor (log2),"CUL1, Q13616",5.31
same,PRISMA enrichment of interactor (log2),"EXOC5, O00471",5.18
same,PRISMA enrichment of interactor (log2),"FKBP9, O95302",5.79
same,PRISMA enrichment of interactor (log2),"FYTTD1, Q96QD9",4.06
same,PRISMA enrichment of interactor (log2),"GATA6, Q92908",7.9
same,PRISMA enrichment of interactor (log2),"GRB2, P62993",5.23
same,PRISMA enrichment of interactor (log2),"HAX1, O00165",5.67
same,PRISMA enrichment of interactor (log2),"HIRIP3, Q9BW71",4.01
same,PRISMA enrichment of interactor (log2),"KLF16, Q9BXK1",4.13
same,PRISMA enrichment of interactor (log2),"LYPLAL1, Q5VWZ2",5.22
same,PRISMA enrichment of interactor (log2),"MPG, P29372",6.94
same,PRISMA enrichment of interactor (log2),"MRPL43, Q8N983",4.46
same,PRISMA enrichment of interactor (log2),"MRPS5, P82675",5.5
same,PRISMA enrichment of interactor (log2),"NCAPD2, Q15021",4.65
same,PRISMA enrichment of interactor (log2),"POLR2J3, Q9H1A7",6.08
same,PRISMA enrichment of interactor (log2),"PTP4A2, Q12974",5.52
same,PRISMA enrichment of interactor (log2),"RBM38, Q9H0Z9",6.61
same,PRISMA enrichment of interactor (log2),"RIF1, Q5UIP0",5.08
same,PRISMA enrichment of interactor (log2),"RNASEH1, O60930",3.78
same,PRISMA enrichment of interactor (log2),"SNRPD3, P62318",5.37
same,PRISMA enrichment of interactor (log2),"SUPT4H1, P63272",5.41
same,PRISMA enrichment of interactor (log2),"TMEM177, Q53S58",9.46
same,PRISMA enrichment of interactor (log2),"TUBG1, P23258",6.08
same,PRISMA enrichment of interactor (log2),"TXLNG, Q9NUQ3",5.4
same,PRISMA enrichment of interactor (log2),"UBA1, P22314",5.07
same,PRISMA enrichment of interactor (log2),"XPO1, O14980",4.85
same,PRISMA enrichment of interactor (log2),"XPO4, Q9C0E2",3.98
same,PRISMA enrichment of interactor (log2),"ZC3H11A, O75152",4.75

# Random excerpt: 3 entries already listed, in no set order.
binder,measurement,setting,value
EVPVPAPVAPARRP [SOS1_MUT_1],PRISMA enrichment of interactor (log2),"BRAT1, Q6PJG6",4.35
same,PRISMA enrichment of interactor (log2),"BZW1, Q7L1Q6",5.17
same,PRISMA enrichment of interactor (log2),"CUL1, Q13616",5.31
